Some of the results follow. Shown are side measurements of this screen, not its main read-out; they come without a call. The list favours compounds with an active or inconclusive main result. Words in brackets tell the shape of the fitted curve; partial curves, single points and poor fits give uncertain potencies.
Experiment: qHTS Assay for Lipid Storage Modulators in Drosophila S3 Cells;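 for cell number change: cells counted by Cell Tracker Red CMTPX staining in the red channel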
Conditions: BODIPY lipid droplet fluorescence, 18-24 h; for cell number change: measured here: cell count max response, cells fed with added oleic acid
Procedure, shortened: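 Drosophila S3 cells got compounds at several concentrations plus oleic acid (400 uM solution). Laser-scanning cytometry with 488 nm excitation read lipid droplets at 500-530 nm and cells at 575-640 nm. Percent activity was relative to 20 uM Triacsin C.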

[1] = measured here: cell number channel AC50, cells fed with added oleic acid
[2] = measured here: lipid fluorescence (Fed channel) AC50, cells fed with added oleic acid

Row | Compound | cell number change [%] | AC50 [1] | AC50 [2]
1 | O=C(Nc1ccc(Cl)c(Cl)c1)C1CCN(C(=O)c2ccco2)CC1 | -32 | 1.16 µM [falling, full curve, poor fit] | 29.1 µM [falling, single point]
2 | CCC1Nc2ncnc(N3CCOCC3)c2N(Cc2ccccc2)C1=O (centres undefined) | 26.4 | 0.517 µM [falling, full curve] | 0.82 µM [falling, full curve]
3 | Cc1cc(C(=O)Nn2cnnc2)ccc1[N+](=O)[O-] | -3.7 |  | 0.731 µM [falling, single point]
4 | COc1cc2c(cc1OC)C1=C(C#N)CC/C(=N\S(=O)(=O)c3ccccc3)N1CC2 | -32.8 | 9.2 µM [falling, partial curve, poor fit] | 20.6 µM [falling, single point]
5 | O=C(Nc1ccc(N2CCCC2)cc1)c1cccc(F)c1 |  | 6.51 µM [rising, single point] | 
6 | CC(C)CN(CC(C)C)C(=O)C12CCC(C)(C(=O)C1)C2(C)C (centres undefined) | -63.8 | 29.1 µM [falling, single point] | 
7 | Cc1ccc(SCCC(=O)OC(C(=O)NC(N)=O)C(C)C)cc1 (centres undefined) |  | 0.00517 µM [falling, full curve, poor fit] | 0.00461 µM [falling, full curve, poor fit]
8 | Cc1csc(NC(=O)CSc2nc3ccccc3c(=O)[nH]2)n1 | -1.12 |  | 
9 | Fc1ccc(COc2ccccc2CNCc2ccncc2)cc1 | 2.22 |  | 32.6 µM [rising, single point]
10 | O=C(O)Cn1nc(C(F)(F)F)c2c1CCC2 | -4.59 |  | 
11 | CCOc1ccccc1NC(=O)NCCC1=CCCCC1 | 8.05 | 4.11 µM [falling, single point] | 
12 | N#Cc1ccc(NC(=O)CCc2nc3ccccc3s2)cc1 | -0.89 |  | 2.06 µM [rising, partial curve, poor fit]
13 | CCOC(=O)C1=C(O)C(=O)N(c2ccc(S(N)(=O)=O)cc2)C1c1ccc(Br)cc1 (centres undefined) | 2.77 | 0.164 µM [falling, full curve, poor fit] | 
14 | COC(C(=O)Nc1ccnn1C1CCN(Cc2nccs2)CC1)c1ccccc1 (centres undefined) |  |  | 0.231 µM [falling, single point]
15 | CSc1cccc(NC(=O)c2cc(S(=O)(=O)N3CCc4ccccc43)cn2C)c1 | 33.4 | 0.0231 µM [rising, full curve, poor fit] | 
16 | CCC(C)N(C(=O)c1csnn1)C(C(=O)NC1CCCC1)c1ccccc1F (centres undefined) | 3.23 |  | 
17 | Cc1cccc(-c2nnc(SCC(=O)c3ccc(O)cc3O)n2C)c1 | 53.3 | 29.1 µM [rising, single point] | 
18 | C=C1SC(=Nc2ccccc2Cl)N(C(=O)c2sc3ccccc3c2Cl)C12CCCCC2 | 113 | 8.2 µM [rising, partial curve] | 18.4 µM [rising, partial curve]
19 | Cc1cccc(C(=O)Nc2ccccc2N2CCN(c3ccc(F)cc3)CC2)c1 | -0.424 |  | 1.46 µM [rising, full curve, poor fit]
20 | c1ccc(Oc2cccc(OCCn3cncn3)c2)cc1 | 5.55 |  | 1.3 µM [rising, full curve]

Row | Compound | cell number change [%] | AC50 [1] | AC50 [2]
21 | Cc1nn(C)cc1CN(C)C(=O)c1cc(COc2ccc(F)cc2F)on1 | 19.8 |  | 11.6 µM [rising, partial curve, poor fit]
22 | CC(C)(C)NC(=O)Cn1c(=O)oc2cc(S(=O)(=O)N3CCc4ccccc43)ccc21 |  |  | 2.06 µM [rising, partial curve]
23 | CC(NC(=O)c1ccc(N2CCCC2)c([N+](=O)[O-])c1)c1ccc(S(N)(=O)=O)cc1 (centres undefined) | 15.8 |  | 29.1 µM [rising, single point]
24 | O=C(C1CC1)N1N=C(c2ccccc2)CC1(O)C(F)(F)C(F)(F)F (centres undefined) | 1.46 |  | 
25 | Cc1cc(C)cc(NS(=O)(=O)c2ccc(NC(=O)C3CCCCC3C(=O)O)cc2)c1 (centres undefined) |  |  | 3.66 µM [falling, full curve]
26 | Cc1cccc(OP(=O)(Nc2c(C)n(C)n(-c3ccccc3)c2=O)Oc2cccc(C)c2)c1 | -18.7 | 0.517 µM [falling, full curve, poor fit] | 
27 | CC(C)n1c(COc2ccccc2)nc2ccccc21 | -1.1 |  | 
28 | Cc1cc(C)cc(NC(=O)C(=O)NCC2CCCN2S(=O)(=O)c2cccs2)c1 (centres undefined) | 4.02 | 7.31 µM [rising, single point] | 2.06 µM [rising, partial curve]
29 | CC1=NN(c2ccccc2)C(=O)C1c1ccccc1 (centres undefined) | 2.93 |  | 0.651 µM [rising, partial curve]
30 | N#CC1(NC(=O)Cn2ncc(Cl)c(Cl)c2=O)CCCCC1 |  |  | 23.1 µM [falling, partial curve, poor fit]
31 | Cc1ccc2c(=O)cc(C(=O)Nc3ccc(S(=O)(=O)Nc4onc(C)c4C)cc3)oc2c1 | 1.49 |  | 
32 | CCCCC(=O)Nc1ccc(NC(=O)c2ccco2)cn1 | -10.1 |  | 
33 | COc1cccc(OC)c1C(=O)NCC12CC3CC(C1)CC(CNC(=O)c1c(OC)cccc1OC)(C3)C2 | 28 |  | 0.164 µM [falling, full curve, poor fit]
34 | CN(Cc1cc2ccccc2[nH]c1=O)S(=O)(=O)c1ccccc1 | 14.1 |  | 7.31 µM [rising, partial curve]
35 | CN(C)c1cccc(C(=O)n2cc(C(=O)c3cc(F)ccc3O)cn2)c1 | 52.1 | 29.1 µM [rising, single point] | 20.6 µM [rising, single point]
36 | C=CCn1c(SCc2c(Cl)cccc2Cl)nnc1-c1cccnc1 | 57 | 0.366 µM [rising, full curve] | 0.411 µM [rising, full curve]
37 | O=C(OCc1nnc(-c2ccccc2)o1)c1cccnc1Cl | 22 |  | 2.31 µM [rising, single point]
38 | c1cc2nnnn2nc1N1CCCCC1 | 11.1 |  | 
39 | C#CCSc1nnc(-c2ccc([N+](=O)[O-])cc2)o1 | 31.5 | 4.11 µM [rising, full curve] | 6.51 µM [rising, single point]
40 | CCC(c1nnc(SCC(=O)Nc2cc(Cl)ccc2C#N)n1C1CCCCC1)N(C)C (centres undefined) | 66.7 | 0.231 µM [rising, partial curve, poor fit] | 

Row | Compound | cell number change [%] | AC50 [1] | AC50 [2]
41 | O=C(O)c1cc(S(=O)(=O)N(Cc2ccccc2)c2cccc(C(F)(F)F)c2)ccc1Cl | 18 |  | 
42 | CN(CC(=O)NCc1ccc2c(c1)OCO2)S(=O)(=O)c1ccc(F)cc1 | -28.9 |  | 0.447 µM [falling, single point]
43 | Cn1c(CC(=O)Nc2ccccc2C(F)(F)F)c(Sc2ccccc2)c2ccccc21 | -5.69 |  | 
44 | N#Cc1ccccc1Oc1ccccc1C=O | -12.4 |  | 
45 | COc1ccc(Cn2cnc3c(NS(C)(=O)=O)c(C)c(C)cc32)cc1 |  | 1.46 µM [rising, partial curve] | 
46 | C/C(=N\NC(=O)c1cc2c(s1)CCC(C)C2)c1ccncc1 (centres undefined) | -36.2 | 0.231 µM [falling, full curve, poor fit] | 6.51 µM [rising, single point]
47 | COc1ccc(S(=O)(=O)N2CCN(C(=O)COc3ccc4c(C)cc(=O)oc4c3)CC2)cc1 | 15.6 |  | 2.06 µM [rising, single point]
48 | Nc1nonc1-n1nnc(C(=O)N/N=C/c2ccncc2)c1-c1cccs1 | -7.08 |  | 
49 | COc1cc(C2C(C#N)=C(N)Oc3c2oc(CO)cc3=O)ccc1OC(C)C (centres undefined) | -4.23 |  | 0.291 µM [falling, partial curve, poor fit]
50 | COc1cccc(NC(=O)CN(C)C(=O)c2ccc(NC3CC3)c([N+](=O)[O-])c2)c1 | 33.2 | 5.17 µM [rising, partial curve, poor fit] | 2.31 µM [rising, partial curve, poor fit]
51 | O=C(Nc1cccc(C(=O)Nc2cccc(C(F)(F)F)c2)c1)c1ccc(=O)[nH]c1 | 22.5 |  | 25.9 µM [falling, single point]
52 | CCOC(=O)c1c(N2C(=O)Nc3cc(Cl)c(Cl)cc3N2O)sc2c1CCCCC2 | -43.2 | 11.6 µM [falling, partial curve] | 11.6 µM [falling, partial curve, poor fit]
53 | C=C(C)Cn1c(CCNC(=O)C(C)(C)C)nc2ccccc21 |  | 3.66 µM [rising, single point] | 3.26 µM [rising, single point]
54 | CCCn1c(NC(=O)c2ccc(Cl)c(S(=O)(=O)N3CCCC3)c2)nc2ccccc21 | -20 |  | 16.4 µM [falling, single point]
55 | Cc1ccc(NC(=O)[C@H](C)NC(=O)C2CCN(C(=O)[C@@H](N)C(C)C)CC2)cc1 | -2.84 |  | 0.13 µM [rising, full curve, poor fit]
56 | Cc1cc2cc(CNC(=O)Nc3cccc(Cl)c3)ccc2n1C | 0.74 |  | 
57 | Cc1ccc(N(C)C2=NC(=O)CS2)cc1Cl | -0.365 |  | 0.731 µM [rising, full curve]
58 | CC(NC(=S)NC1CCC(C(C)(C)C)CC1)c1ccccc1 (centres undefined) | 48.1 | 36.6 µM [rising, partial curve] | 
59 | COc1ccc(N(C(=O)Cn2nnc3ccccc32)C(C(=O)NCc2ccco2)c2ccc(C)o2)cc1 (centres undefined) | -44 | 14.6 µM [falling, partial curve] | 14.6 µM [falling, single point]
60 | O=C(Nn1cc(C(=O)Nc2ccccc2F)c2ccccc2c1=O)c1cnccn1 | -64.2 | 29.1 µM [falling, partial curve, poor fit] | 0.0461 µM [falling, full curve, poor fit]

A draw from above in order of heavy-atom count, ascending.
Row | Compound | cell number change [%] | AC50 [1] | AC50 [2]
10 | O=C(O)Cn1nc(C(F)(F)F)c2c1CCC2 | -4.59 |  | 
3 | Cc1cc(C(=O)Nn2cnnc2)ccc1[N+](=O)[O-] | -3.7 |  | 0.731 µM [falling, single point]
46 | C/C(=N\NC(=O)c1cc2c(s1)CCC(C)C2)c1ccncc1 (centres undefined) | -36.2 | 0.231 µM [falling, full curve, poor fit] | 6.51 µM [rising, single point]

— PubChem BioAssay AID2685 (National Center for Advancing Translational Sciences (NCATS), 2010)
